These are yes or no findings as the source states them, for the method shown. Some binding calls cover weakened binding; strength is not graded here.
Tests used:
[1] = biological target: human 4F2hc (SLC3A2), heavy subunit of the heterodimeric amino acid transporter 4F2hc-LAT1 (human) (UniProt P08195); assay: non-reducing SDS-PAGE with Coomassie staining and Western blot; double affinity purified 4F2hc-LAT1 on 10% SDS-PAGE, non-reducing against reducing (DTT) conditions; blots with anti-His-tag and anti-Strep-tag antibodies; disulfide-linked heterodimer; both purified
[2] = biological target: human 4F2hc (SLC3A2), heavy subunit of the heterodimeric amino acid transporter 4F2hc-LAT1 (human) (UniProt P08195); assay: double affinity co-purification (Ni-NTA, then Strep-Tactin); membranes of P. pastoris co-expressing both subunits solubilised in LMNG/CHS; first Ni-NTA by the His-tag of 4F2hc (exchange to GDN), then Strep-Tactin XT by the Strep-tag of LAT1; 100 mM BTP-HCl pH 8.0, 150-300 mM NaCl, 4 °C
[3] = biological target: human 4F2hc (SLC3A2), heavy subunit of the heterodimeric amino acid transporter 4F2hc-LAT1 (human) (UniProt P08195); assay: SEC; double affinity purified 4F2hc-LAT1, about 1 mg/mL, Superose 6 3.2/300, 20 mM BTP-HCl pH 8.0, 150 mM NaCl, 2% glycerol, 0.05% GDN; both purified
[4] = biological target: human 4F2hc (SLC3A2), heavy subunit of the heterodimeric amino acid transporter 4F2hc-LAT1 (human) (UniProt P08195); assay: negative-stain transmission electron microscopy; double affinity and SEC-purified 4F2hc-LAT1 in GDN at 50 µg/mL on carbon-coated grids, 0.75% uranyl formate; both purified

The chains behind the UniProt entries cited, without tags or fusion partners. Residues count along the entry.
UniProt P08195, residues 102-630: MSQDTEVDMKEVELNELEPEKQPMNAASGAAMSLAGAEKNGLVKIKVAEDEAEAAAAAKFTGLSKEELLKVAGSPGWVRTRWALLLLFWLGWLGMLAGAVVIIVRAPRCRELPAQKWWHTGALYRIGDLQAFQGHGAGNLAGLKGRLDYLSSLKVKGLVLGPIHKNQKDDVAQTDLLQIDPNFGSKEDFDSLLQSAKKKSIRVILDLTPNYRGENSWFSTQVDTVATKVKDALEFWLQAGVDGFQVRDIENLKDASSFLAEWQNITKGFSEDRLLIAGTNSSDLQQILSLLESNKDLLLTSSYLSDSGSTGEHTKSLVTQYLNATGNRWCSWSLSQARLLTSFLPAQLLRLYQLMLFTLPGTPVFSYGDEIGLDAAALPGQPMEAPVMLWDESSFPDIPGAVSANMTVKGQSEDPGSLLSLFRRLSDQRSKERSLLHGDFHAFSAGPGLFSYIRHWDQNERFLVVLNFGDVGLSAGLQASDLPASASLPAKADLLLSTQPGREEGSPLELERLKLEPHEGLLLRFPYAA
UniProt Q01650: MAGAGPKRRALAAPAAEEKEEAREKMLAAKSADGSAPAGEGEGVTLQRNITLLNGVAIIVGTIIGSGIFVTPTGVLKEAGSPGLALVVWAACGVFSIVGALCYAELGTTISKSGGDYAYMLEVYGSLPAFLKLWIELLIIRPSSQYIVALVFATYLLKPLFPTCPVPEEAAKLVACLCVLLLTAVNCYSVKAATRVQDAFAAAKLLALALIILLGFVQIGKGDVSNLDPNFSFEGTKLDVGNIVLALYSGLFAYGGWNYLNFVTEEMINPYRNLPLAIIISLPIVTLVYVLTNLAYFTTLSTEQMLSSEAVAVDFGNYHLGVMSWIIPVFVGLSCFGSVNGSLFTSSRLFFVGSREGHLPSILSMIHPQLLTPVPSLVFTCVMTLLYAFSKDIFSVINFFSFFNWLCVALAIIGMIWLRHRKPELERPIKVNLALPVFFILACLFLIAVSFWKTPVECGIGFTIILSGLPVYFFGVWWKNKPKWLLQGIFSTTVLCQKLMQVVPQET

Measured: binding

human L-type amino acid transporter LAT1 (SLC7A5), light subunit of the heterodimeric amino acid transporter 4F2hc-LAT1 (from UniProt Q01650 1-507)
binds: all assays above
